The target of experiment [1] is T1, four and a half LIM domains 2 (FHL2) (mouse (endogenous in MOVAS)) (UniProt O70433).
T1 sequence: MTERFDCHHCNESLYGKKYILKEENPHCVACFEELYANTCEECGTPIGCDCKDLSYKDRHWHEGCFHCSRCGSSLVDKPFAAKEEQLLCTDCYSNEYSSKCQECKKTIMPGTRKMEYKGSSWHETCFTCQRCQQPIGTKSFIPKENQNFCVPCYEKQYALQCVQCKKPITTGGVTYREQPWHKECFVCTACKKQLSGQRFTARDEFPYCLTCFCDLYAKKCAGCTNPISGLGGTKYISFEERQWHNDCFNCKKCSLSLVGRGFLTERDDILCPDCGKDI
The experiment is described as follows: co-IP; Pierce Co-Immunoprecipitation Kit; endogenous proteins of MOVAS cells treated with 3 mmol/L sodium dihydrogen phosphate; precipitation with anti-FHL2 (MBL #K0055-3) or anti-Runx2 (MBL #D130-3) antibody, 7.5 uL/mg protein; both directions.

Sequences of proteins named here, by UniProt entry; tags and fusion partners are left off.
UniProt Q08775: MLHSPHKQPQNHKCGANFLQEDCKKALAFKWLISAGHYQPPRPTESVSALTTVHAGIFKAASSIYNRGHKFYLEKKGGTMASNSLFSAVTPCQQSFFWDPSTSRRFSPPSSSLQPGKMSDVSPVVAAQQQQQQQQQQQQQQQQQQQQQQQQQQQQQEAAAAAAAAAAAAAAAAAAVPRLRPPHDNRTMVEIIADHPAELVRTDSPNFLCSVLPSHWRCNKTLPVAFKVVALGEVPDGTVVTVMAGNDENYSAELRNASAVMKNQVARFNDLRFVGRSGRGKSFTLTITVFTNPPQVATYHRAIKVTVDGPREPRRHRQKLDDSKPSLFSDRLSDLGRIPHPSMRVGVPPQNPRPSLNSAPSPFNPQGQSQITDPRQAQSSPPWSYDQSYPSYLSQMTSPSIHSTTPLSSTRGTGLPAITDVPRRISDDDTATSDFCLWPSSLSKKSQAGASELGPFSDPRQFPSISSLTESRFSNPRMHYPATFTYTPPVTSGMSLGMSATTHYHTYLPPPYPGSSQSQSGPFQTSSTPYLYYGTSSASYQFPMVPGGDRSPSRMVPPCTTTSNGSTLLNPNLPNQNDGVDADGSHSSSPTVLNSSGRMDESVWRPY

Experiment [2] concerns the target runt-related transcription factor 2 (RUNX2) (mouse (endogenous in MOVAS)) (UniProt Q08775). Described as above.

Results are given in words; binding and its absence hold for the method and conditions named. Binding seen in cells or lysates may run through a third protein. Some binding calls cover weakened binding; strength is not graded here.

Regarding “runt-related transcription factor 2 (RUNX2) (from UniProt Q08775 1-607)”, the binding result in experiment [1] was “binds”.

B1: four and a half LIM domains 2 (FHL2) (protein, UniProt O70433 1-279)
chain: T1 sequence
B1: the binding entry in experiment [2] is “binds”.

Source of the values: publication PMC11596093.
